From PubChem BioAssay AID2685 (National Center for Advancing Translational Sciences (NCATS), 2010)
Some of the results follow. The main result of the screen is listed elsewhere. These columns were measured beside it and carry no call. Compounds called inactive in the main read-out are mostly missing here. The note in brackets gives the kind of curve behind each potency; many fits are weak.

Experiment: qHTS Assay for Lipid Storage Modulators in Drosophila S3 Cells;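 as to cell number change: cells counted by Cell Tracker Red CMTPX staining in the red channel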
Details: BODIPY lipid droplet fluorescence, 18-24 h; for cell number change: measured here: cell count max response, cells fed with added oleic acid
In short: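 Drosophila S3 cells got compounds at several concentrations plus oleic acid (400 uM solution). Laser-scanning cytometry with 488 nm excitation read lipid droplets at 500-530 nm and cells at 575-640 nm. Percent activity was relative to 20 uM Triacsin C.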

[1] = measured here: cell number channel AC50, cells fed with added oleic acid
[2] = measured here: lipid fluorescence (Fed channel) AC50, cells fed with added oleic acid

Structure (SMILES) | AC50 [1] | AC50 [2] | cell number change
Cc1ccc(C(=O)Nc2ccc3c(c2)OCO3)cc1NC(=O)c1ccco1 | 0.00517 µM [rising, full curve, poor fit] | – | –
Cc1ccccc1NC1=NCC(c2ccc([N+](=O)[O-])cc2)S1 (configuration not stated) | – | 0.82 µM [falling, full curve, poor fit] | –
CCOC(=O)N1CCN(C(=O)c2cc3ccccc3o2)CC1 | – | 0.58 µM [rising, single point] | 17.3%
C[n+]1ccccc1N1CCN(c2ccccc2Cl)CC1 | 32.6 µM [rising, single point] | 0.58 µM [falling, full curve] | 33.3%
COc1ccccc1CNC(=O)CSc1nc2ccccc2c(=O)n1CCCN1CCOCC1 | 5.17 µM [falling, single point] | – | -6.15%
O=C(CSc1nc2ccccc2n1CC(=O)NCc1ccccc1)NCc1ccco1 | – | 2.06 µM [rising, single point] | -5.47%
Cc1ccc2nc(CSc3nnc(Cc4cccs4)n3C3CCCCC3)cc(=O)n2c1 | – | 0.461 µM [rising, full curve] | -16.7%
Cc1cc(C)cc(N(CC(=O)NC(C)(C)C)C(=O)CCC(=O)Nc2ccccn2)c1 | – | 18.4 µM [rising, single point] | 10.5%
O=C(Cn1cnc2scc(-c3ccc(F)cc3)c2c1=O)NCC(c1ccco1)N1CCCC1 (configuration not stated) | 20.6 µM [rising, single point] | – | 82%
Cc1cc2nc(-c3ccc(SCC(=O)N4CCc5ccccc54)nc3)[nH]c2cc1C | 0.731 µM [falling, full curve, poor fit] | 0.058 µM [falling, full curve, poor fit] | -18.6%
CCOC(=O)N1CCN(C(=O)Nc2ccc3nc(-c4ccccn4)c(-c4ccccn4)nc3c2)CC1 | – | 23.1 µM [falling, partial curve] | –
CCNc1ccc(C(=O)NN=C2CCCC2)cc1[N+](=O)[O-] | 0.146 µM [rising, full curve, poor fit] | 0.206 µM [rising, full curve] | 90.1%
CSCCC(NC(=O)c1ccco1)C(=O)NCC(C)(C)N1CCOCC1 (configuration not stated) | – | 0.164 µM [rising, full curve, poor fit] | 9.98%
CN(C)C(=O)COC(=O)c1cc(Cl)cc(Cl)c1N | 2.91 µM [rising, single point] | 18.4 µM [rising, partial curve] | –
CC(=O)Nc1ccc(S(=O)(=O)NCC(=O)OCC(=O)NCc2ccco2)cc1 | 18.4 µM [falling, single point] | 4.11 µM [rising, full curve, poor fit] | -100%
CCc1cc(C(=O)N2CCCC(Nc3ccc(F)c(F)c3)C2)n(C)n1 (configuration not stated) | – | 0.259 µM [falling, partial curve, poor fit] | 10.8%
COc1cccc(NC(=O)CSc2nc3ccccc3nc2N2CCOCC2)c1 | – | 13 µM [falling, partial curve, poor fit] | -29.1%

A stretch from the list above, as a working copy:
Structure (SMILES) | AC50 [1] | AC50 [2] | cell number change
CC(=O)Nc1ccc(S(=O)(=O)NCC(=O)OCC(=O)NCc2ccco2)cc1 | 18.4 µM [falling, single point] | 4.11 µM [rising, full curve, poor fit] | -100%
CCc1cc(C(=O)N2CCCC(Nc3ccc(F)c(F)c3)C2)n(C)n1 (configuration not stated) | – | 0.259 µM [falling, partial curve, poor fit] | 10.8%

Later entries:

Structure (SMILES) | AC50 [1] | AC50 [2] | cell number change
Cc1cc(C)c(C#N)c(SCC(=O)C(C)(C)C)n1 | – | 0.291 µM [falling, full curve] | -13.3%
C#CCOCCOCCOCCNc1nc(N2CCN(C(=O)CCCCCCCCCCNC(=O)[C@@H](CCSC)n3cc(CCO)nn3)CC2)nc(N2CCN(C(=O)CCCCCCCCCCNC(=O)[C@H]([C@@H](C)CC)n3cc(CCCCCN)nn3)CC2)n1 | 25.9 µM [falling, single point] | – | -75.8%
Cc1onc(C(=O)Nc2ccc3c(c2)OCO3)c1[N+](=O)[O-] | 1.46 µM [rising, full curve, poor fit] | 29.1 µM [rising, single point] | 6.65%
Cc1cc(SCC(=O)N2CCCC2=O)nc2c(C)cccc12 | 8.2 µM [rising, partial curve] | 6.51 µM [rising, single point] | 45.4%
O=C(c1cc(Cl)ccc1Cl)N1CCOCC1 | 0.184 µM [rising, full curve, poor fit] | 0.651 µM [falling, single point] | -9.26%
O=S(=O)(N1CCOCC1)n1nnc2ccccc21 | – | 0.00651 µM [falling, full curve, poor fit] | -14.5%
CC1(C)CC(=O)C2=C(C1)Nc1ccccc1NC2 | – | 6.51 µM [falling, single point] | 17%
CC1CCCCC12NC(=O)N(CC(=O)Nc1sccc1C(N)=O)C2=O (configuration not stated) | – | 0.184 µM [rising, full curve] | 18.6%
CC(=O)Nc1cccc(C(=O)/C=C/c2ccc(/C=C/C(=O)c3cccc(NC(C)=O)c3)cc2)c1 | – | 4.61 µM [falling, partial curve] | –
CCOC(=O)C1=C(c2ccccc2)NC(=O)NC1c1ccc(O)c(OCC)c1 (configuration not stated) | 6.51 µM [rising, partial curve, poor fit] | 6.51 µM [rising, partial curve, poor fit] | -6.34%
Cc1ccc(NC(=O)CC2SC(=O)NC2=O)cc1 (configuration not stated) | 0.206 µM [falling, partial curve, poor fit] | 23.1 µM [rising, single point] | -10.7%
CCOc1ccc(S(=O)(=O)N2CCNC(=O)C2)cc1 | – | – | 7.08%
CCOC(=O)C1=C(N)N2C(=O)C(C)SC2=C(C(=O)OC)C1c1cccc(OC)c1 (configuration not stated) | – | 18.4 µM [falling, partial curve] | -23.1%
COc1nc(Cc2ccc(Cl)cc2)nc2ccccc12 | – | – | 19.4%
Cc1nc2ccccc2c(=O)n1C1CCCCCC1 | – | – | -15.3%
CC(=O)Oc1ccc(-c2cccc(C(=O)N3CCCCC3)c2)cc1 | 0.231 µM [falling, full curve, poor fit] | 6.51 µM [falling, single point] | -29.4%
CCN(Cc1cc2cc(C)ccc2[nH]c1=O)S(=O)(=O)c1ccccc1 | 13 µM [rising, partial curve, poor fit] | 0.146 µM [falling, full curve, poor fit] | 42.2%
